Source: US8329644B2 (Novacta Biosystems Limited, priority 2007, dated 2012)

Experiment: peptide synthesis
Settings: late stage modification step

Row | Substance | step yield
1 | Deoxy-Actagardine B [tris(hydroxymethyl)methylamine]monocarboxamide | 69%
2 | Deoxyactagardine B (N,N-bis(2-hydroxyethyl)ethylene diamine) monocarboxamide | 48%
